Experimental data: patent US8906848B2, “Aureobasidin derivatives and methods of synthesis” (priority 2011, dated 2014)
Values after ≈ are worked out from the molar mass of the structure shown.

Tested on: Cryptococcus neoformans 0634 (ATCC90112)
Assay: MIC, antifungal spectrum (Table 3)
Type: cell-based
Experimental: The activities of several exemplary compounds of the present invention were assayed according to the CLSI standard M38-A2 titled “Reference Method for Broth Dilution Antifungal Susceptibility Testing of Filamentous Fungi”. However, the RPMI-1640 broth is substituted for a YPD medium formulated according to the following steps: […]
1. Dissolve 10 g of BactoYeast extract in 500 ml water
2. Dissolve 20 g of BactoPeptone in the above solution
3. Dissolve 20 g Dextrose in the above solution* *Ordinary table sugar (sucrose) substituted for dextrose routinely.
4. q.s. to 1000 ml with water

MIC (48 hr reading): 0.015 µg/mL (≈ 0.0162 µM)
MIC (72 hr reading): 0.03 µg/mL (≈ 0.0325 µM)
SMILES: C[C@@H]1[C@H](O)[C@@H](C)/C=C/C=C/C=C/C=C/C=C/C=C/C=C/[C@H](O[C@@H]2O[C@H](C)[C@@H](O)[C@H](N)[C@@H]2O)C[C@@H]2O[C@](O)(C[C@@H](O)C[C@@H](O)[C@H](O)CC[C@@H](O)C[C@@H](O)CC(=O)O[C@H]1C)C[C@H](O)[C@H]2C(=O)O [Amphotericin, Amphotericin B]
